# Assay results published in US20050107432A1, “Sigma receptor binder containing indanone derivative” (priority 2002, published 2005).
# Where a name gives a salt, the structure may show the parent alone.
# Target: Sigma receptor
# Test: Sigma receptor binding assay (3H-DTG, guinea pig brain crude membrane fraction)
# Conditions: inhibition of 3H-DTG binding to guinea pig brain crude membrane fraction, 25° C., 1 hour
# Protocol: Sigma Receptor Binding Assay
# (1) Preparation of Receptor
# Ten male guinea pigs (Crj, Hartley, from Charles River Japan, Inc.) (body weight: 234 g to 260 g) were decapitated, exsanguinated and died. The brain was immediately removed, homogenized with ten volumes of 50 mM Tris-HCl (pH 7.4) using a Teflon homogenizer and was centrifuged at a rate of 50000× g at 4° C. for 20 minutes. The washing procedure was repeated once more under the same conditions, and the resulting crude membrane fraction was subjected to the assay.
# The filter paper was transferred to a vial for radioactivity measurement, mixed with 5 mL of a liquid scintillation cocktail (Atomlight, from PACKARD), and the radioactivity on the filter was determined by a liquid scintillation counter (Model 1500, from PACKARD) for 2 minutes. The specific binding and the non-specific binding in the absence of the test compound were determined in the same way as above except for using 50% DMSO solution instead of the test compound and using a 100 μM Haloperidol solution instead of the test compound, respectively.
# (3) Determination of Inhibition
# The inhibitions of the test compound at individual concentrations were determined from the ratio of the specific binding in the presence of the test compound to the specific binding in the absence thereof. […]
compound,measurement,value
"COc1cc2c(cc1OC)C(=O)C(CC1CCN(Cc3ccccc3)CC1)C2 (stereo not shown) [Control, 1-benzyl-4-[(5,6-dimethoxy-1-indanon)-2-yl]methylpiperidine hydrochloride, reference compound]",IC50,18.7 nM
